Data on 3 substances can be found in PMC9584350.

Amino acid sequences for entries named in this document (tags omitted). A change or cut given only in a name is not applied to a line headed by its entry. Residues count along the entry.
UniProt P54646: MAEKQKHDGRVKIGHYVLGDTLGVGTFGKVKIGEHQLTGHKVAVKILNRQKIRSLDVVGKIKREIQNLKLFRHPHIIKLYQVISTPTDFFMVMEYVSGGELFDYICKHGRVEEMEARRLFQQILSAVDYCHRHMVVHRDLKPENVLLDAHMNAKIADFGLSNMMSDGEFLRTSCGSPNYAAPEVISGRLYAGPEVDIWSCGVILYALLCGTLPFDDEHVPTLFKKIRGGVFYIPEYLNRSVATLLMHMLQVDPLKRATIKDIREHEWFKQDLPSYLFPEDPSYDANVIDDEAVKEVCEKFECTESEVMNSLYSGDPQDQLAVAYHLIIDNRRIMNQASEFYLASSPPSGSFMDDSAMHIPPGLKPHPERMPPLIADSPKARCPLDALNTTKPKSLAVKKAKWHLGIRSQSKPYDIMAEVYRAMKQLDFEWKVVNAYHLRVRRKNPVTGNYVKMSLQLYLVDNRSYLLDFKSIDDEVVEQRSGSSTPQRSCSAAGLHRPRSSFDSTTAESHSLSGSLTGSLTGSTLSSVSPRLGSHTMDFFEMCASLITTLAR
GST–AMPK-C (amino acids 291–552 of AMPKα2): residues 291-552 of P54646
UniProt P62330: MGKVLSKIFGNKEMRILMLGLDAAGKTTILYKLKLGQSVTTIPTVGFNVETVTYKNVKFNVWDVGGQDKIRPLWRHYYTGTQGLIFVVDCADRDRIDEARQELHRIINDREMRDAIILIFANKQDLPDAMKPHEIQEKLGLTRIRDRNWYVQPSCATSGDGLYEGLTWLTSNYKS

The target of one experiment is FLAG–AMPKα2-WT (UniProt P54646). The experiment is described as follows: co-IP; HEK 293T cells transfected, lysed in 50 mM Tris-HCl pH 7.4, 150 mM NaCl, 1% NP-40; IP with anti-FLAG antibody and Protein A Sepharose, immunoblot. In general terms: Immunoblotting shows a protein as a band on a membrane.
The target of experiment [1] is GST–AMPK-C (amino acids 291–552 of AMPKα2) (UniProt P54646). Kind of experiment: pull-down; GST–AMPK-C immobilised on glutathione beads, incubated with His–Arf6 WT preloaded with 1 mM GDP (30°C, 15 min); binding buffer as above, 1 h at 4°C; both purified.
Experiment [2] shares this target. Kind of experiment: pull-down; GST–AMPK-C immobilised on glutathione beads, incubated with His–Arf6 WT preloaded with 1 mM nonhydrolyzable GTPγS (30°C, 15 min); binding buffer as above, 1 h at 4°C; both purified.

Results are given in words; binding and its absence hold for the method and conditions named. For some of these results: Binding seen in cells or lysates may run through a third protein. Some binding calls cover weakened binding; strength is not graded here.

Regarding “Arf6-T27N (myc-tagged, in cells) (from UniProt P62330 1-175)”, in the experiment with FLAG–AMPKα2-WT, the binding result is “binds”.
For “Arf6-Q67L (myc-tagged, in cells) (from UniProt P62330 1-175)”, in the experiment with FLAG–AMPKα2-WT, the binding entry was “no binding”.
For “His–Arf6 (WT) (from UniProt P62330 1-175)”, the binding entry is reported as “binds” in experiment [1] and “no binding (condition: Arf6 preloaded with 1 mM GTPγS)” in experiment [2].
